From article PMC12297241 come the findings set out here.

Sequences of proteins named here, by UniProt entry; tags and fusion partners are left off. A change or cut given only in a name is not applied to a line headed by its entry.
UniProt Q9Y572: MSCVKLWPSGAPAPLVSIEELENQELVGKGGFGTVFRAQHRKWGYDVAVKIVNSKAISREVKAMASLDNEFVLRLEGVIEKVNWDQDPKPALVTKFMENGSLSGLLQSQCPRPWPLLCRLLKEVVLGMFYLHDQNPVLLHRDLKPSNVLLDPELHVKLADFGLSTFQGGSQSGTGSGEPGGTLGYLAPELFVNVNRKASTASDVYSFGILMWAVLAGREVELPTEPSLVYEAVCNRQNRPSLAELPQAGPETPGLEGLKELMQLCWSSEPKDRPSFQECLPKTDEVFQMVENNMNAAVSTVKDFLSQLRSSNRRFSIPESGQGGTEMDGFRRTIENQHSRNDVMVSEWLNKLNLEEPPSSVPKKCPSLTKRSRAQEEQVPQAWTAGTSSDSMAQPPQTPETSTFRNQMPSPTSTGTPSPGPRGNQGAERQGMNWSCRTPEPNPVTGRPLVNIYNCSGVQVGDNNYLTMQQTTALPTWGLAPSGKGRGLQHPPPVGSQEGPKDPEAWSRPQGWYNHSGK
UniProt Q13546: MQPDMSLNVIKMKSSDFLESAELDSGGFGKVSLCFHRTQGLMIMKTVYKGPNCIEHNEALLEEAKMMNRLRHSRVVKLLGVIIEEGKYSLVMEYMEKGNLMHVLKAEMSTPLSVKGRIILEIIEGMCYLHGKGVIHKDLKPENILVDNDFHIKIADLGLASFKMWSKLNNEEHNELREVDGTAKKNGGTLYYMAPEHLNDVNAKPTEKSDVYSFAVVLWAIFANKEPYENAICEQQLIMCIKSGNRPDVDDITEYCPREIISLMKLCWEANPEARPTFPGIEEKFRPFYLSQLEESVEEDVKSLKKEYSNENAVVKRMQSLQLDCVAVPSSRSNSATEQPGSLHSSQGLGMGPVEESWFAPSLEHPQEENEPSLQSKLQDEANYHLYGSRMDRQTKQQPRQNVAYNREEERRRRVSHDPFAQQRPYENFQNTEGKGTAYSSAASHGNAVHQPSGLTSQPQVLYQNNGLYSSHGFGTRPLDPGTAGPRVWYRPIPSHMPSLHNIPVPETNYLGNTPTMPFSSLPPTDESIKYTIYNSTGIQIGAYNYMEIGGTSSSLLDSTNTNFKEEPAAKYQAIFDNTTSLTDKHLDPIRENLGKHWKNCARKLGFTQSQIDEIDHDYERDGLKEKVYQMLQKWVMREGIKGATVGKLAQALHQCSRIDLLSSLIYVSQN

No constants are given. Whether binding was seen depends on the method and setting. Binding seen in cells or lysates may run through a third protein. Some results given as binding are weak or reduced against the parent protein; the word gives no strength.

Test [1] concerns the target Flag-RIPK3 (not stated (human or mouse cDNA cloned)) (UniProt Q9Y572). Nature of the test: co-IP; HEK293T cells co-transfected for 24 h with Flag- and Myc-tagged expression vectors; lysates immunoprecipitated overnight with anti-Flag beads at 4 °C; immunoblot.
The target of test [2] is Flag-RIPK1 S213E stably expressed in HT-29 RIPK1-KO cells (human) (UniProt Q13546). Nature of the test: co-IP; HT-29 RIPK1-KO cells stably expressing Flag-RIPK1, stimulated with TSZ (TNF + Smac mimetic + zVAD) for indicated time points; lysates immunoprecipitated overnight with anti-Flag beads at 4 °C (Complex II); immunoblot. (A western blot detects proteins with antibodies after separation by electrophoresis.)

In test [3] the target is Flag-RIPK1 wild-type stably expressed in HT-29 RIPK1-KO cells (human) (UniProt Q13546). Described as above.

Consider “RIPK1-WT overexpressed in HEK293T cells (Flag-RIPK1-WT or Myc-RIPK1-WT) (from UniProt Q13546 1-671)”, for which the binding entry in test [1] is “binds”.

In the case of “RIPK3, endogenous in HT-29 cells (from UniProt Q9Y572 1-518)”, the values for the binding result in test [2] and in test [3] were “no binding” and “binds”, respectively.
